According to patent US20110189751A1:
Results are given in words; binding and its absence hold for the method and conditions named. In cells and extracts the contact can be indirect. Some binding calls cover weakened binding; strength is not graded here.

Amino acid sequences for entries named in this document (tags omitted). A change or cut given only in a name is not applied to a line headed by its entry.
UniProt Q6Z7B0: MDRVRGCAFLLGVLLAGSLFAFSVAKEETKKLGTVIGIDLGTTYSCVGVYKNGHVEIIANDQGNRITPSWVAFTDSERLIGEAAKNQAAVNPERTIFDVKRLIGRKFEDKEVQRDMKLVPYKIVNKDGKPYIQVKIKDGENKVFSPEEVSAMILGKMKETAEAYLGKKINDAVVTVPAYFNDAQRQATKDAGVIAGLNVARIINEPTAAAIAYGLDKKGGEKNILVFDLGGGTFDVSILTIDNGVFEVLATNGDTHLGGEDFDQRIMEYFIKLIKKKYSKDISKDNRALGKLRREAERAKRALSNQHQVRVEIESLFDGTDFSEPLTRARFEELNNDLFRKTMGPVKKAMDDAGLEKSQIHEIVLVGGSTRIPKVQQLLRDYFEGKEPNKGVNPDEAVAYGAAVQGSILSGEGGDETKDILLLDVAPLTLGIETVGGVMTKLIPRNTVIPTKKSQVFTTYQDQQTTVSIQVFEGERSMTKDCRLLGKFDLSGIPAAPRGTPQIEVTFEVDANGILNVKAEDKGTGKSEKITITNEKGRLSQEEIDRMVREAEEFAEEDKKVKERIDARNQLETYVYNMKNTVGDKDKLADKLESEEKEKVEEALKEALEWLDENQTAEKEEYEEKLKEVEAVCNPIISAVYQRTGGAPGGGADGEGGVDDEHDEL

Key:
[1] = target: rice endosperm lumenal binding protein (BiP homolog) AAB63469 (Oryza sativa) (UniProt Q6Z7B0); test: co-elution from ATP-agarose, SDS-PAGE
[2] = target: rice heat shock protein 70 (Hsp70-ABF95267; gb|ACJ54890.1|) (Oryza sativa Japonica Group) (UniProt P09189); test: co-elution from ATP-agarose, SDS-PAGE
[3] = target: rice endosperm lumenal binding protein (BiP homolog) AAB63469 (Oryza sativa) (UniProt Q6Z7B0); test: co-elution from ATP-agarose, SDS-PAGE and peptide mass fingerprinting
[4] = target: rice heat shock protein 70 (Hsp70-ABF95267; gb|ACJ54890.1|) (Oryza sativa Japonica Group) (UniProt P09189); test: as above

Measured: binding

recombinant human serum albumin produced in rice (Cellastim, new process B0000C; lots P0153, P0156 and/or P0171) (from UniProt P02768 25-609)
binds: all assays above
